Test results from article PMC9520665, “Chaperonin containing TCP-1 (CCT/TRiC) is a novel therapeutic and diagnostic target for neuroblastoma” (Frontiers in Oncology, 2022).
No constants are given. Whether binding was seen depends on the method and setting.

Target: T1, biotinylated CT20p
T1 sequence (peptide, biotin (position not stated)): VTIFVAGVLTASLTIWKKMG
Test: condition: 0.1-50 nmol biotin-CT20p with 0.1 nmol CCT2 protein; pull-down; 0.1-50 nmol biotin-CT20p (or biotin alone) mixed with 0.1 nmol recombinant CCT2 protein in 20 mM Tris-HCl, 3 h at room temperature, then overnight at 4°C with streptavidin-agarose beads; immunoblot for CCT2; both purified

binding: no binding
B1: CCT2(150-407) (domain or fragment, UniProt P78371-1 150-407)
chain: SDEVKFRQDLMNIAGTTLSSKLLTHHKDHFTKLAVEAVLRLKGSGNLEAIHIIKKLGGSLADSYLDEGFLLDKKIGVNQPKRIENAKILIANTGMDTDKIKIFGSRVRVDSTAKVAEIEHAEKEKMKEKVERILKHGINCFINRQLIYNYPEQLFGAAGVMAIEHADFAGVERLALVTGGEIASTFDHPELVKLGSCKLIEEVMIGEDKLIHFSGVALGEACTIVLRGATQQILDEAERSLHDALCVLAQTVKDSRTV
